Screening data, single-dose tests

Chains of the proteins cited; added tags and fusions are not shown. Residues count along the entry.
UniProt Q4DA54, 1-478: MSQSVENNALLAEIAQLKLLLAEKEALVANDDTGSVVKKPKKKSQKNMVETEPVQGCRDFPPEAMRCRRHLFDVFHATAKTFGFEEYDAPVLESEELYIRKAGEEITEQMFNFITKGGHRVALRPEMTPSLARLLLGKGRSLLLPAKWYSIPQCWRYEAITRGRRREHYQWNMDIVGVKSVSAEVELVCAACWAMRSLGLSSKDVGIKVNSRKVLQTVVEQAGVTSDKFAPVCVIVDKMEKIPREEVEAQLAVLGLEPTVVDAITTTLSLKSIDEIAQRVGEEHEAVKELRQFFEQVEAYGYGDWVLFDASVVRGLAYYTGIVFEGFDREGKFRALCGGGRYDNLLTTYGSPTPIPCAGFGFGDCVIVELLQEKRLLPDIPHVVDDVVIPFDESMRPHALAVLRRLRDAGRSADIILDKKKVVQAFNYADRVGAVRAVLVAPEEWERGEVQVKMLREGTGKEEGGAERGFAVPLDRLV
UniProt I6X8D2, whole entry: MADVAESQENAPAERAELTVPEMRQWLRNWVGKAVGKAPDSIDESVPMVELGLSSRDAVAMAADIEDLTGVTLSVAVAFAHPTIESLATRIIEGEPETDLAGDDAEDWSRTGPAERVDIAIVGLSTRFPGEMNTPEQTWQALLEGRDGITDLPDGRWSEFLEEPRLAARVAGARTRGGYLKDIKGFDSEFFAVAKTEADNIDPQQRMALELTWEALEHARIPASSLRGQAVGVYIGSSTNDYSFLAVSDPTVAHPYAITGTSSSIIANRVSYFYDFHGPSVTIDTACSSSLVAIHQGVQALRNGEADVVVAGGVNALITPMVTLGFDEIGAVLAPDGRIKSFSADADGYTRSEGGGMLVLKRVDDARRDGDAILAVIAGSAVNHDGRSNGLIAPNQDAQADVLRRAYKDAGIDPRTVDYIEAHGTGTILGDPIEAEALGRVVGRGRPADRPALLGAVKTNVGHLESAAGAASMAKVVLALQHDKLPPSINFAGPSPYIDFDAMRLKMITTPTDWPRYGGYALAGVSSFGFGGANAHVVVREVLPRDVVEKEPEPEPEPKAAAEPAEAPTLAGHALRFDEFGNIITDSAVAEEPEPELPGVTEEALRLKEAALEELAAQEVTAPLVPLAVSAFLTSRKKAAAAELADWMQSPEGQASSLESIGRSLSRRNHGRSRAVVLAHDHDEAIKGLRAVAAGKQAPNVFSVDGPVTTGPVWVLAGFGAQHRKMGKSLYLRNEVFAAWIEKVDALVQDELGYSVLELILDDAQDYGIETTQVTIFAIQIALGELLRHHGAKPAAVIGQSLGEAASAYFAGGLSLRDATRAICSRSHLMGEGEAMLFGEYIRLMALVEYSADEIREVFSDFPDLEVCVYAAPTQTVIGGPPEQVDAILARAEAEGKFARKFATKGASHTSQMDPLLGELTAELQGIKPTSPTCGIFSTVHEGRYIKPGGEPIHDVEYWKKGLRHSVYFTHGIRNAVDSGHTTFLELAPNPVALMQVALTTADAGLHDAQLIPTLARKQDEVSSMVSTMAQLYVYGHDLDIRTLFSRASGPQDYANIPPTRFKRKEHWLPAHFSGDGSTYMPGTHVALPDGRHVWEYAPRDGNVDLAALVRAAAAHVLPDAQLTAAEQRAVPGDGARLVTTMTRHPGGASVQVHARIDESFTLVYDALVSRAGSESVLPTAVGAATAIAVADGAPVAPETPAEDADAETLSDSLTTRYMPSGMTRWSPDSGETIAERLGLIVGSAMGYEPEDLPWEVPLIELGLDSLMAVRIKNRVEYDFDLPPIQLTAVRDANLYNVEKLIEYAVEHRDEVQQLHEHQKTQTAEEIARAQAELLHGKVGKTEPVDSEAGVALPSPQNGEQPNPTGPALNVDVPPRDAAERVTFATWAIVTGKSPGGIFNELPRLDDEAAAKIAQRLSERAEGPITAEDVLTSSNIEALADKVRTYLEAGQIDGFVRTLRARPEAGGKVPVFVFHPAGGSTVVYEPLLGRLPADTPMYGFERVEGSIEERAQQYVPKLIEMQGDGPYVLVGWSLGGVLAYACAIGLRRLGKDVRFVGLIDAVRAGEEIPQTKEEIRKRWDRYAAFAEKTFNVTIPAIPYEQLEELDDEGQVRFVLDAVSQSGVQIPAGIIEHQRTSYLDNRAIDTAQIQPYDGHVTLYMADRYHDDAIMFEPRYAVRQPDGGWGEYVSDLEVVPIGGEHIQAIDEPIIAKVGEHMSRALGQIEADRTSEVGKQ
UniProt P9WNZ1, whole entry: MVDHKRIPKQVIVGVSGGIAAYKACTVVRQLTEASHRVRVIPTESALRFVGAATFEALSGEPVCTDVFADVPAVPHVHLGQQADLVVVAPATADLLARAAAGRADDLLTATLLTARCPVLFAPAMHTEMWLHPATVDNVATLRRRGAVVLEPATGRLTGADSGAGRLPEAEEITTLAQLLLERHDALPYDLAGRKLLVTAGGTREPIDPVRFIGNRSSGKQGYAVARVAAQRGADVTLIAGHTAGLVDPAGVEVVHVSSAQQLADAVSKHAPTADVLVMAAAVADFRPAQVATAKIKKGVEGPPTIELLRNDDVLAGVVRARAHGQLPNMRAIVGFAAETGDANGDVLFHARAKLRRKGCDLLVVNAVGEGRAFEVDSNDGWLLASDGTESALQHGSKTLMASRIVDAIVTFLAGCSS
UniProt Q8IDJ8, 1-583: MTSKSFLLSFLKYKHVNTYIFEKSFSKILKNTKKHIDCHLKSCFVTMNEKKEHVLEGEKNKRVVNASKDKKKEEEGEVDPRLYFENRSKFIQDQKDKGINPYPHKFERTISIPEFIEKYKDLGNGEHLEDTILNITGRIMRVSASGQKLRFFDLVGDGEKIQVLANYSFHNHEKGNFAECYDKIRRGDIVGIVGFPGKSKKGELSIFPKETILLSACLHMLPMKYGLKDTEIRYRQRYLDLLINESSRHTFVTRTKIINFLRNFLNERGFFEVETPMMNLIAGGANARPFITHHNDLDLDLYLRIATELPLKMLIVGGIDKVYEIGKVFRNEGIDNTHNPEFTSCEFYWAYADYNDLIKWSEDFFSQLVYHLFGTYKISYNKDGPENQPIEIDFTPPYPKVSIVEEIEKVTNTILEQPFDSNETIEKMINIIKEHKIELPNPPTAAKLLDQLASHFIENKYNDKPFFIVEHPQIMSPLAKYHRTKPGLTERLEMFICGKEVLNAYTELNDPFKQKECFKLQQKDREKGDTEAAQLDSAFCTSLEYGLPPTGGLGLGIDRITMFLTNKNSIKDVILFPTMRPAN
UniProt P9WFT3, whole entry: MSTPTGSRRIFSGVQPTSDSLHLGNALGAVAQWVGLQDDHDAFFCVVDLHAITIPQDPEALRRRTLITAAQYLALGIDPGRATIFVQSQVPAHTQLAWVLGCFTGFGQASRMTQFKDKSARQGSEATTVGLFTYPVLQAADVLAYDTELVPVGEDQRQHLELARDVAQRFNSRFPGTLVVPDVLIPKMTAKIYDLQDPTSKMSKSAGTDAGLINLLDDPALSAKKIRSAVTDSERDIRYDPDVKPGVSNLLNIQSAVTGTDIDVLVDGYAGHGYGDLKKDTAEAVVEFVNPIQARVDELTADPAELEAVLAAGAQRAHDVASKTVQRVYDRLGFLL

Data taken from ChEMBL document CHEMBL3988442, “University of Dundee, Small-Polar-MMV Screening Library” (2021).

A: 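Histidine-tRNA ligase, Trypanosoma cruzi CL Brener (UniProt Q4DA54). Enzyme assay of histidyl-tRNA synthetase; the read-out is not stated. Compounds at 30 µM. The record gives no direction; compounds that gave an IC50 in retests scored well above the rest, so higher reads as stronger inhibition. Size under these conditions: about 69,000 compounds, about 31 of them at 50% or above in at least one test.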
B: 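Enzyme assay of the thioesterase domain of polyketide synthase 13; the read-out is not stated. Target: Polyketide synthase Pks13, Mycobacterium tuberculosis (UniProt I6X8D2). Concentration: 30 µM. Higher reads as stronger inhibition (inferred from which compounds were picked for retests). About 67,000 compounds were tested under these conditions; 0.46% (about 300) showed 50% or more at least once.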
C: 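Coenzyme A biosynthesis protein CoaBC, Mycobacterium tuberculosis (UniProt P9WNZ1). Enzyme assay of CoaBC with a phosphate dye (Biomol Green) read at 650 nm. Compounds at 30 µM. Higher reads as stronger inhibition, judged from the few compounds that gave an IC50. Most strong results did not repeat in a second test. Of about 67,000 compounds tested this way, about 40 (0.06%) reached 50% or more in at least one test.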
D: 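Cell assay of Leishmania donovani living inside macrophages; the read-out is not stated. Concentration: 30 µM. The record gives no direction; compounds that gave an IC50 in retests scored well above the rest, so higher reads as stronger inhibition. About 69,000 compounds were tested under these conditions; 1.5% (about 1,000) showed 50% or more at least once.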
E: 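Lysine-tRNA ligase, Plasmodium falciparum 3D7 (UniProt Q8IDJ8). Enzyme assay of the cytosolic lysyl-tRNA synthetase in 384-well plates, read by luminescence. Compounds at 30 µM. Direction is inferred from only a few compounds that gave an IC50; most scored high, so higher reads as stronger inhibition. Size under these conditions: about 69,000 compounds, about 49 of them at 50% or above in at least one test.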
F: 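Enzyme assay of tryptophanyl-tRNA synthetase; the read-out is not stated. Target: Tryptophan-tRNA ligase, Mycobacterium tuberculosis (UniProt P9WFT3). Tested at 10 µM. Direction is not recorded; retested compounds ran higher, which suggests that high means inhibition. Size under these conditions: about 65,000 compounds, about 64 of them at 50% or above in at least one test.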

The filed quantity is “Percent Effect” (%).
How 0% and 100% were set is not recorded. Most values in the screen are low, and negative values occur.
This is an unselected part of the compounds tested.
Two or more numbers in one place are separate tests of the same structure; such repeats can differ widely.

With O=C(O)C(F)(F)F.O=C(O)C(F)(F)F.O=C(O)C(F)(F)F.[H][C@@]12CCCO[C@]1([H])[C@H](N(C)Cc1cccnc1)CN2CC1CC1 the screen gave D: -6.168%. For [H][C@@]12COC[C@@H](Cc3nc(C)no3)[C@]1([H])CN(C(=O)C1=CCCC1)C2 the result was D: 32.84%. With Cc1[nH]c2nc(CNc3cccc(Cl)c3)nn2c(=O)c1C the screen gave A: 5.941%; B: -19.11%; C: 0.8475%; D: -15.2%; E: 2.781%; F: -2.177%. CCc1cc(CN(Cc2cccnc2)C2CN3CCC2CC3)on1 (centres unmarked) gave A: -3.509%; B: -15.67%; C: 2.343%; D: -3.346%; E: 4.923%; F: -2.853%. For CN(C)C(=O)c1c[nH]nc1C1CCN(S(=O)(=O)c2cccc(Cl)c2)CC1 the result was A: 0%; B: -0.6548%; C: 5.226%; D: 17.35%; E: 1.162%; F: -0.3397%. Result for Cn1ccnc1CN1CCC2(CC(=O)N(c3ccsc3)C2)C1.O=C(O)C(F)(F)F (centres unmarked) was D: 19.56%. Result for COc1ccccc1N1CCC(CNS(=O)(=O)c2cccc(C#N)c2)C1 (centres unmarked) was A: 2.326%; B: 50.85%; C: 31.14% & 9.794%; D: 10.1%; E: -2.594%; F: 12.65%.

CC(C)NS(=O)(=O)c1cc(C(=O)O)cc(-n2cc3c(n2)CCC3)c1 read A: -13.64%; B: -12.99%; C: 11.64% & 73.4%; D: 13.32%; E: -0.2997%; F: -0.1837%. COc1ccc(Cl)cc1CCNC(=O)NCc1ncnn1C gave A: 3.982%; B: -10.64%; C: -1.869%; D: 30.56%; E: 5.051%; F: -2.957%. Cn1ccc(C(=O)N2CCCC(c3cc4cccnc4c(O)n3)C2)n1 (centres unmarked) gave A: -0.3759%; B: 24.03%; C: 3.963%; D: -11.24%; E: -0.9153%; F: 0.7026%. With CN(C)CC1CSCCCN1C(=O)c1ccc(-c2ccccc2)cc1 (centres unmarked) the screen gave A: 11%; B: -7.826%; C: 4.348%; D: 40.29%; E: 1.226%; F: -7.294%. With COc1ccccc1C(=O)NC[C@H]1COCc2nc3c(C)cccc3n21 the screen gave A: 5.435%; B: -48.09%; C: 6.402%; D: 10.29%; E: 7.818%; F: -4.021%. For O=C1NCC2(CCCN(Cc3ccc(Cl)s3)C2)Oc2ccccc21 (centres unmarked) the result was A: 1.075%; B: 1.321%; C: 9.555%; D: -2.347%; E: 0.3095%; F: 0.25%. CC(C)c1ncc(CN2C[C@@H](CN3CCC(O)CC3)[C@@H](CO)C2)cn1 read A: -2.174%; B: 5.815%; C: 3.831%; D: -13.58%; E: -3.437%; F: 16.35%.

CN(CC1CC1)S(=O)(=O)c1ccc(C(F)(F)F)cc1C#N read A: -1.111%; B: -28.74%; C: 6.723%; D: 32.96%; E: 3.94%; F: -4.631%. With CCOc1ccc(Cl)c(C(=O)N2CCCC(c3ccn[nH]3)C2)n1 (centres unmarked) the screen gave A: 6.077%; B: -35.5%; C: 0%; D: 27.72%; E: 1.317%; F: -2.374%. CCC(C)(NCC(=O)NC(=O)NC)c1nc(C)cs1 (centres unmarked) read A: 4.651%; B: 1.662%; C: -2.575%; D: -1.455%; E: 4.038%; F: -3.606%. Result for Fc1cccc(-c2nc(CN3CCn4c(nnc4C4CC4)C3)co2)c1 was A: 4.906%; B: -3.614%; C: 6.128%; D: -9.329%; E: 8.027%; F: -4.814%. With O=C1CN(C(=O)C2CCOC2)CCN1Cc1ccc(Cl)cc1 (centres unmarked) the screen gave A: 8.387%; B: -11.08%; C: -0.7246%; D: 40.52%; E: -2.255%; F: -2%. Cl.Cl.c1cc(COC[C@@H]2CCC[C@@]23CNCCO3)ccn1 gave D: 8.265%. CC(C)(O)CN1CCN(C(=O)c2ccc3c(c2)COC3)CC1 read A: 0%; B: -1.587%; C: -2.887%; D: 16.98%; E: 0.6051%; F: -8.94%.

With CCC(O)CN1CCN(C(=O)c2ccc(Cn3cccc3)cc2)CC1 (centres unmarked) the screen gave A: 8.309%; B: -7.073%; C: 10.31%; D: -2.132%; E: 0.3031%; F: -1.278%.

Some entries from above, unchanged:

{"smiles": "CC(C)NS(=O)(=O)c1cc(C(=O)O)cc(-n2cc3c(n2)CCC3)c1", "A": -13.64, "B": -12.99, "C": "11.64 & 73.4", "D": 13.32, "E": -0.2997, "F": -0.1837}
{"smiles": "O=C1CN(C(=O)C2CCOC2)CCN1Cc1ccc(Cl)cc1", "stereo": "centres unmarked", "A": 8.387, "B": -11.08, "C": -0.7246, "D": 40.52, "E": -2.255, "F": -2}